# Article PMC7862700
# Protein sequences, listed by entry. Tags and fused reporters are not part of them. Lines headed by an entry give the natural chain unless they say otherwise; changes in a name come on top.
# UniProt Q01892: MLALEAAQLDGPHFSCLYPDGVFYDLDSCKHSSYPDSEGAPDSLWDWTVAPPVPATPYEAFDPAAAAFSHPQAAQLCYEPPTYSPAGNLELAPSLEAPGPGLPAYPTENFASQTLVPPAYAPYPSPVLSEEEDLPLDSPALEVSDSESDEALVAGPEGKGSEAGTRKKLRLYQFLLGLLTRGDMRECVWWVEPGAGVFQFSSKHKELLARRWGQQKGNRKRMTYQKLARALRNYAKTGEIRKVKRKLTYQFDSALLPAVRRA
# UniProt P41161: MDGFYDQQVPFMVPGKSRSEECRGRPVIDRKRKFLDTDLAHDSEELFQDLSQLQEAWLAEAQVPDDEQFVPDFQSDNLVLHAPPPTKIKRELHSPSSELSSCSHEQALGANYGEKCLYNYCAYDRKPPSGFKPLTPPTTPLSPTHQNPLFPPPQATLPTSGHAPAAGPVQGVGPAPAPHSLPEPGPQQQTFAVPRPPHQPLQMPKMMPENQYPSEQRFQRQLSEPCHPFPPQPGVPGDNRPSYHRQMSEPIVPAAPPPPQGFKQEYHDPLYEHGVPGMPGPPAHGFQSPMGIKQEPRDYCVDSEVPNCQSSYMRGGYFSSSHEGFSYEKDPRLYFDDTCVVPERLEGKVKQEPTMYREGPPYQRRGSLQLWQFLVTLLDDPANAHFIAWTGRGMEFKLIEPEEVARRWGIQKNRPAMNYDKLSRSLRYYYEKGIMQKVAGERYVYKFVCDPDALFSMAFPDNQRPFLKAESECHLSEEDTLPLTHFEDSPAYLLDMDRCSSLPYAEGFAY
# UniProt Q99607: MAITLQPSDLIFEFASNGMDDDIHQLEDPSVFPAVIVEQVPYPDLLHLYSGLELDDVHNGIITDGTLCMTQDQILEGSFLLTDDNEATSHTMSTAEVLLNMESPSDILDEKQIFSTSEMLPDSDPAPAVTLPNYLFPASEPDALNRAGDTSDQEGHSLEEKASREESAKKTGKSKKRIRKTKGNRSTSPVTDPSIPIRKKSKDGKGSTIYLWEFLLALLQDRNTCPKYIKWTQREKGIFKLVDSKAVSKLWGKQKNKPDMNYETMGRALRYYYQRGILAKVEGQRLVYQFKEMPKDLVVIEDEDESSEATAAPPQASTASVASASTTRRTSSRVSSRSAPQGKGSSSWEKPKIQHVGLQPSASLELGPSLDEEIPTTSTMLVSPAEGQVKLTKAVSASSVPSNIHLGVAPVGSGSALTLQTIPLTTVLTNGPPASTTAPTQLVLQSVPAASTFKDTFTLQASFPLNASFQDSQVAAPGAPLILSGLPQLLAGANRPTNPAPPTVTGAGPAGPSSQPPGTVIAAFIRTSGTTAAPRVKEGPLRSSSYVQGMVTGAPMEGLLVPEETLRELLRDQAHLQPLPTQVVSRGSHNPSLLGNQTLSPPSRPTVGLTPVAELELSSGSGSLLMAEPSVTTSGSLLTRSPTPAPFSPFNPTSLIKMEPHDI
# This is a selection; strong and weak results do not stand in their true shares. At the low end of the ranking the order means little.
# Columns and labels:
# Experiment in all cases: DAPPL (digital affinity profiling via proximity ligation, sequencing)
# Conditions in all cases: 10 mM Tris-HCl pH 7.5, 50 mM NaCl, 1 mM DTT, 4% glycerol, room temperature, 30 min; GST-TFs on glutathione beads, 16-mer random dsDNA library, 0.1% …; high values mean tight binding; double strand, one strand shown; scale: fold enrichment (6-mer frequency, TF over GST control)
# [1] = target: T1, FLI1 (UniProt Q01543)
# T1 sequence: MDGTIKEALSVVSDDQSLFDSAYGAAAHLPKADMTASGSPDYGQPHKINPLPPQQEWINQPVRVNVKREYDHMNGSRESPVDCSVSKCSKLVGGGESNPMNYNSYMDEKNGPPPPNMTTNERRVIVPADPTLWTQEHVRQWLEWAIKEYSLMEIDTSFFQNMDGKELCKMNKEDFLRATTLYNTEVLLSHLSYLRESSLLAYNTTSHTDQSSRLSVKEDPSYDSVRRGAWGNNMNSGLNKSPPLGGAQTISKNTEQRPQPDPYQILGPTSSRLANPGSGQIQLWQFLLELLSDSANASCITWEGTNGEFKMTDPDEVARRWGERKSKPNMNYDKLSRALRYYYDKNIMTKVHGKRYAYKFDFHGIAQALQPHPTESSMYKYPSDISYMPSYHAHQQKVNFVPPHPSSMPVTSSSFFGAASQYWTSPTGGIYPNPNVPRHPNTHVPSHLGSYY
# [2] = target: T2, EHF (UniProt Q9NZC4)
# T2 sequence: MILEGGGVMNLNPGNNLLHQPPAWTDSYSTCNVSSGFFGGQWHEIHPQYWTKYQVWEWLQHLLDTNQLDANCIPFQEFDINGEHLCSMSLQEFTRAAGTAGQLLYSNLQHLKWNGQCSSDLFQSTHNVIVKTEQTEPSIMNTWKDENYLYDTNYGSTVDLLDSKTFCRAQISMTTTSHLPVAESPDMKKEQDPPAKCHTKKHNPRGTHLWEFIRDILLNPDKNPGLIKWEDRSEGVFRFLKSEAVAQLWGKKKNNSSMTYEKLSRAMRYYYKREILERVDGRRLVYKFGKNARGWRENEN
# [3] = target: SPIB (UniProt Q01892)
# [4] = target: ETV5 (UniProt P41161)
# [5] = target: ELF4 (UniProt Q99607)
# [6] = target: T3, ETV2 (UniProt O00321)
# T3 sequence: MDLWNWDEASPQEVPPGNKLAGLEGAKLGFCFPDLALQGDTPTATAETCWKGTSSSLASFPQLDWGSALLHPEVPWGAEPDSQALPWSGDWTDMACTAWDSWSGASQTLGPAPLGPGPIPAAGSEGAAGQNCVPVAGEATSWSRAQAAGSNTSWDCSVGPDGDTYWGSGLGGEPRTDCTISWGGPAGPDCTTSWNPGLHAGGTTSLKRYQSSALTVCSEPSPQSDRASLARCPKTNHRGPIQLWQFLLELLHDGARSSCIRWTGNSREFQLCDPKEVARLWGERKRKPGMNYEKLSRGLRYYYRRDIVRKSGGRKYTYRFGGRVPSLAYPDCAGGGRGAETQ
# [7] = target: T4, ETV3L (UniProt Q6ZN32)
# T4 sequence: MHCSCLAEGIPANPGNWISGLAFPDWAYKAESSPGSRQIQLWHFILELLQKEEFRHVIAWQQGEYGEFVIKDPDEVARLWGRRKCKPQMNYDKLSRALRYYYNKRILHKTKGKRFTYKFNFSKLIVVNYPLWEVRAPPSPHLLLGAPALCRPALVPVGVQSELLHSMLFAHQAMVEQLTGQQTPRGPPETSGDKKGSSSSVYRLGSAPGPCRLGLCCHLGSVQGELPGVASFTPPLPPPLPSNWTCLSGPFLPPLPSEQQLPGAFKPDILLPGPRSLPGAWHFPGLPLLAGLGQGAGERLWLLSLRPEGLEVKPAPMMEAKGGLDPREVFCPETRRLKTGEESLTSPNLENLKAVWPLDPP
Sequence,binding signal [1],binding signal [2],binding signal [3],binding signal [4],binding signal [5],binding signal [6],binding signal [7]
TACCGT,0.644,0.647,0.659,0.638,0.684,0.638,0.706
CGGAGG,0.278,0.285,0.254,0.265,0.273,0.263,0.313
TGTCGA,0.904,0.863,0.853,0.892,0.904,0.742,0.785
AAGAGA,0.798,0.887,0.793,0.841,0.858,0.798,0.872
GGCCGT,0.43,0.404,0.376,0.365,0.435,0.391,0.402
GGAAAG,0.848,0.889,0.958,0.932,0.961,0.884,0.939
AGCGGG,0.485,0.487,0.517,0.502,0.469,0.505,0.489
GATGTG,0.913,0.875,0.914,0.949,0.851,0.836,0.956
CGTGCA,0.66,0.736,0.604,0.708,0.712,0.785,0.663
GAGTCG,0.229,0.201,0.222,0.208,0.233,0.219,0.223
GCCGAG,0.655,0.616,0.604,0.644,0.647,0.741,0.668
AGGAGG,0.234,0.219,0.214,0.231,0.203,0.232,0.22
CCGTGG,0.381,0.415,0.448,0.406,0.409,0.387,0.395
GGTAGA,0.686,0.69,0.627,0.639,0.624,0.62,0.709
GTCATG,0.794,0.791,0.778,0.92,0.885,0.809,0.867
GACAAA,0.934,0.947,0.924,0.966,0.965,0.938,0.968
GAGCGC,0.585,0.641,0.601,0.572,0.625,0.599,0.614
GTGAAT,0.817,0.836,0.881,0.82,0.789,0.776,0.786
AGTCGA,0.438,0.396,0.419,0.39,0.415,0.362,0.409
GACACA,0.963,0.907,0.873,0.872,0.902,0.866,0.956

# A stretch from the list above:
Sequence,binding signal [1],binding signal [2],binding signal [3],binding signal [4],binding signal [5],binding signal [6],binding signal [7]
GACAAA,0.934,0.947,0.924,0.966,0.965,0.938,0.968
GAGCGC,0.585,0.641,0.601,0.572,0.625,0.599,0.614

# Following part.

Sequence,binding signal [1],binding signal [2],binding signal [3],binding signal [4],binding signal [5],binding signal [6],binding signal [7]
AGCAGT,0.74,0.737,0.672,0.677,0.733,0.701,0.755
CCATGA,0.8,0.865,0.883,0.862,0.877,0.844,0.881
AGGACA,0.798,0.833,0.807,0.845,0.811,0.779,0.788
GTAGAC,0.799,0.741,0.779,0.767,0.76,0.781,0.783
GGCGGG,0.328,0.332,0.31,0.325,0.335,0.322,0.322
ACGTGC,0.666,0.764,0.636,0.684,0.727,0.821,0.713
GGACGG,0.511,0.529,0.509,0.554,0.443,0.524,0.527
AGGGTC,0.822,0.81,0.901,0.862,0.825,0.839,0.895
AGGTAC,0.941,0.906,0.91,0.937,1.01,0.775,0.873
GCAGGG,0.697,0.577,0.65,0.596,0.65,0.611,0.658
CGGTGT,0.713,0.721,0.725,0.724,0.722,0.855,0.74
GAGGTC,0.646,0.616,0.563,0.634,0.618,0.601,0.611
ACGCAT,0.848,0.84,0.785,0.796,0.794,0.835,0.824
GGATTG,0.791,0.764,0.856,0.783,0.845,0.712,0.856
CGGCGG,0.572,0.578,0.625,0.603,0.589,0.551,0.607
GCATCG,0.731,0.783,0.786,0.794,0.838,0.766,0.774
GACGGT,0.467,0.457,0.461,0.488,0.415,0.588,0.501
GACAGG,0.552,0.574,0.556,0.55,0.593,0.494,0.571
CCAGTA,0.659,0.732,0.688,0.658,0.71,0.694,0.665
GGAGTA,0.349,0.343,0.377,0.36,0.344,0.375,0.411
